Measured values taken from the supplement of paper PMC10849652.
The list shows a part of the results.

The chains behind the UniProt entries cited, without tags or fusion partners. Where a name states a change or a piece, a line headed by the entry shows the natural chain unless it says otherwise.
UniProt Q9P0S3: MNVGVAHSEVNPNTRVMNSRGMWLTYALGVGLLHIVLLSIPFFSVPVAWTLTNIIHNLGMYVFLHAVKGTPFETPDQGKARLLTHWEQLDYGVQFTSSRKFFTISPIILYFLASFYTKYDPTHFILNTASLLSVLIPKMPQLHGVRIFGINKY
UniProt Q9UBU9: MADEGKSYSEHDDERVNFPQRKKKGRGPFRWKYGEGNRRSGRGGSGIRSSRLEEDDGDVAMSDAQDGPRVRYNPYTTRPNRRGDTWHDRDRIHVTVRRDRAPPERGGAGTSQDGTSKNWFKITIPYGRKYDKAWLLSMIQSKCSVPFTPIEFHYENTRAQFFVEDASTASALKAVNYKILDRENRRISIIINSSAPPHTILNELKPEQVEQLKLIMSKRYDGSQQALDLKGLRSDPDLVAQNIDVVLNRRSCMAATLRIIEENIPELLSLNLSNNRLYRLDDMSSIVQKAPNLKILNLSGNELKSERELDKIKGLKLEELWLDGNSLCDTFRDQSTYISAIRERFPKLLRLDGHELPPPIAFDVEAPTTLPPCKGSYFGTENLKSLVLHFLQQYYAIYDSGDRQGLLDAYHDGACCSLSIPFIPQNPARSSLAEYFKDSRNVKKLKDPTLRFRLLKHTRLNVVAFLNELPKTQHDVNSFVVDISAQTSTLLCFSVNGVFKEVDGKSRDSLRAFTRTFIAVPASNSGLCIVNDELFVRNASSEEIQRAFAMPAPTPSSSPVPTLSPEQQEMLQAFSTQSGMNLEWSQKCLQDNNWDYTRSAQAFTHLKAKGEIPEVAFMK
UniProt Q9Y5N6: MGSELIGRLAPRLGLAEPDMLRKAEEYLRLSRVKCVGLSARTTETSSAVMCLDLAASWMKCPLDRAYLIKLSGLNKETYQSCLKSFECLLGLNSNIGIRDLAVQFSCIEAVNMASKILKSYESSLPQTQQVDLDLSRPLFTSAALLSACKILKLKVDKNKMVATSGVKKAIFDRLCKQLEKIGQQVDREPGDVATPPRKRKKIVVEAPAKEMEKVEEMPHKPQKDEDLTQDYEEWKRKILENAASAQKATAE
UniProt Q6PK18: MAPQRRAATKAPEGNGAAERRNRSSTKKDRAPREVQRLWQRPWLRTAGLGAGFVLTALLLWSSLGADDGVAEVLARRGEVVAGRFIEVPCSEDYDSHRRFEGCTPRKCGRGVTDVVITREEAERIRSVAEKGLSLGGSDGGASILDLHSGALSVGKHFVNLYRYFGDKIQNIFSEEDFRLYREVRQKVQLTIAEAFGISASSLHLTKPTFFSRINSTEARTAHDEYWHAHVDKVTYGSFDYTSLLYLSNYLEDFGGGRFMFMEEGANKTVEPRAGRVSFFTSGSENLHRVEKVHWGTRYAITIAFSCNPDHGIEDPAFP
UniProt Q96D31, whole entry, looked up: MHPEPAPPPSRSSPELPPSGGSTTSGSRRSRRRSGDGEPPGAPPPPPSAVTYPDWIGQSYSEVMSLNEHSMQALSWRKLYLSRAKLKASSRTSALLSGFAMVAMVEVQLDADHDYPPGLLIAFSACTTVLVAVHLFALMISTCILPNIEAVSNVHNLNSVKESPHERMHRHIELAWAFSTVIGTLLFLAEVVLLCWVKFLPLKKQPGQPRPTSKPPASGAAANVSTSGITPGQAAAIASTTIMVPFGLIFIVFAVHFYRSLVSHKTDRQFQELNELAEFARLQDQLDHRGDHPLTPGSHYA
UniProt Q13416: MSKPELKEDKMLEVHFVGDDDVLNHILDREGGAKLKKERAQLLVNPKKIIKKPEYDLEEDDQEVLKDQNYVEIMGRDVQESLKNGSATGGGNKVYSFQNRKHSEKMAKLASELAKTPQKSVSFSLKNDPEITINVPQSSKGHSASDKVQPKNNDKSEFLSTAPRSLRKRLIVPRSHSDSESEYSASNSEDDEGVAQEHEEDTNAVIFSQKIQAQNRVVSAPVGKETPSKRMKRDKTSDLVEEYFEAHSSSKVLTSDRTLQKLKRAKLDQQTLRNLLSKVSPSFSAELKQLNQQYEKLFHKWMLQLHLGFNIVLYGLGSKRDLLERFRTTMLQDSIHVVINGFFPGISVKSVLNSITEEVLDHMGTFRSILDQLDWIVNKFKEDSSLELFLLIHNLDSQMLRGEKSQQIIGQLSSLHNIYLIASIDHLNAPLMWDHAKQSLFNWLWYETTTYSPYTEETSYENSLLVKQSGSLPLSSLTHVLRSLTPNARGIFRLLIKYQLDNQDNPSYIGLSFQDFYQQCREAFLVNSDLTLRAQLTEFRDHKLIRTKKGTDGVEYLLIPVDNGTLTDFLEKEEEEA
UniProt Q8N138: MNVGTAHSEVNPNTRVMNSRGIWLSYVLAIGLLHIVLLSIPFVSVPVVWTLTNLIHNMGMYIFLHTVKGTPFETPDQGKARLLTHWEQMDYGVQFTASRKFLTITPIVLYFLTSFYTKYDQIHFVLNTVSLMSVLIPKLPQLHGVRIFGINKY
UniProt Q9UBD5: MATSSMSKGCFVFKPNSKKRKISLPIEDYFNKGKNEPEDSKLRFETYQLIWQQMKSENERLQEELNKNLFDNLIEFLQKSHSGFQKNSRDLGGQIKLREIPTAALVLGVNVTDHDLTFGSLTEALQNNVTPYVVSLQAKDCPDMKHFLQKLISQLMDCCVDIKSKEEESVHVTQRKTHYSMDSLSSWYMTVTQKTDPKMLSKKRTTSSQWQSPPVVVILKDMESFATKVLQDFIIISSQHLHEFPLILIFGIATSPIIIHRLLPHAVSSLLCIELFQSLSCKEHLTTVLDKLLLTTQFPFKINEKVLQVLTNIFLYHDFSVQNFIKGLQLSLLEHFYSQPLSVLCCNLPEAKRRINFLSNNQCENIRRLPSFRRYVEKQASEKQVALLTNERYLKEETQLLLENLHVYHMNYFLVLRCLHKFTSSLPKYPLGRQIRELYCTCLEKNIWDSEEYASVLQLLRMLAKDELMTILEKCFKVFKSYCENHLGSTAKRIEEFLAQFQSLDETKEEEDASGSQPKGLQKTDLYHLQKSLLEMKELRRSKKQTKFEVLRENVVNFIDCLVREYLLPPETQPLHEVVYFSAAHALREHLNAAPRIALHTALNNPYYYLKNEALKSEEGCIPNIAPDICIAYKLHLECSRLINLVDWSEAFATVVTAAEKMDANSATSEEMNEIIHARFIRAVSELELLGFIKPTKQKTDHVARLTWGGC
UniProt Q9BZD4: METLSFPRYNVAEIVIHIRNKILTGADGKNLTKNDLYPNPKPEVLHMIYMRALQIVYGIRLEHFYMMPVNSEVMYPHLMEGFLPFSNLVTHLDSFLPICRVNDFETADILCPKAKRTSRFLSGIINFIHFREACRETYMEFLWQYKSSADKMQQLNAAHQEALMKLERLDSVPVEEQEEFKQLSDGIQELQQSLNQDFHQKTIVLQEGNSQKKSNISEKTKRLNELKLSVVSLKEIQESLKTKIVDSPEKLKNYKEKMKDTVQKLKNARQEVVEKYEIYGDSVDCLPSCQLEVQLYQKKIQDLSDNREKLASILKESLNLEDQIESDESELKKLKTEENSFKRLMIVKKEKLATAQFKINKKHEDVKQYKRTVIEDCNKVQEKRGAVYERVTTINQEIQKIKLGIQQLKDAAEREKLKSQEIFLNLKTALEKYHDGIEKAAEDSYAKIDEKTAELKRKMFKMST
UniProt P53370: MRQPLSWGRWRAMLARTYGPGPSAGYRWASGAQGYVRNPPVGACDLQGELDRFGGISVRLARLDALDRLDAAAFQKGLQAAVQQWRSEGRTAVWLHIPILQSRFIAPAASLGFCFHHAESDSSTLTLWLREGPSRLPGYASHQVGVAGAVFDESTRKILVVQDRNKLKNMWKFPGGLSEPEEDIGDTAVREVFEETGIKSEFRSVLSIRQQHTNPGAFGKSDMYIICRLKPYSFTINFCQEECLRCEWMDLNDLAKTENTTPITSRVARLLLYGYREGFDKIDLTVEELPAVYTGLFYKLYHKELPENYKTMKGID
UniProt P47900: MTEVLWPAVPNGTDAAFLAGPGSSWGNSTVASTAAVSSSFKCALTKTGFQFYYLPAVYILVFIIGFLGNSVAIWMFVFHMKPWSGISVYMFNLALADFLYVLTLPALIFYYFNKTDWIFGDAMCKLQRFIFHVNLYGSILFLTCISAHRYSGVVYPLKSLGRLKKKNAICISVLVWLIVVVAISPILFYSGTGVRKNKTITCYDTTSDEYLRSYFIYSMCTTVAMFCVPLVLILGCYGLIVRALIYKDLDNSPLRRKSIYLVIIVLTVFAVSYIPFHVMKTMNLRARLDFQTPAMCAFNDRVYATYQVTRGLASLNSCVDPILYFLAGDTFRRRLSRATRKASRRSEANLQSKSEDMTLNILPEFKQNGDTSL
UniProt Q9H6K4: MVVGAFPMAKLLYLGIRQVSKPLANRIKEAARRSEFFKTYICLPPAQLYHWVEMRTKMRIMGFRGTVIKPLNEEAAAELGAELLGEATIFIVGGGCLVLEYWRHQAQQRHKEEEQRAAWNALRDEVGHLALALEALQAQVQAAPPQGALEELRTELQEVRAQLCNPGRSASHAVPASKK

Assays:
Test in all cases: log2 fold change, soluble protein after heating vs DMSO (PISA); higher = thermal stabilisation; K562 cells, 10 uM, 30 min; active = over 0.2 and 3.5 SD of the protein, either way, in both replicates (recomputed)
[1] = compound: COC1=CC=C(C=C1)CN2C=CC3=C2C=C(C=C3)C(=O)NO
Procedure, shortened: (§1)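 K562 cells at 2×10^6 cells/mL were given 10 μM compound for 30 min. Aliquots then went through 3 min of heating across 48°C-58°C, were pooled, and were extracted in PBS with 0.5% NP-40 at 4°C, and the supernatant after 21,000xg for 90 min was quantified by TMTpro 16plex LC-MS/MS with channel sums equalised. Thermal stability relative to control samples, from duplicates, is given as log2 fold change.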

filanesib = compound: CON(C)C(=O)N1N=C(c2cc(F)ccc2F)S[C@@]1(CCCN)c1ccccc1 [filanesib]
Procedure, shortened: as §1

alisertib = compound: COc1cc(Nc2ncc3c(n2)-c2ccc(Cl)cc2C(c2c(F)cccc2OC)=NC3)ccc1C(=O)O [alisertib]
Procedure, shortened: as §1

[2] = compound: COc1cccc2cc(-c3nc([C@H]4CC[C@H](C(=O)O)CC4)n4ncnc(N)c34)[nH]c12
Procedure, shortened: as §1

[3] = compound: CS(=O)(=O)c1ccc(-c2cnc(N)c(C(=O)Nc3ccccc3)n2)cc1
Procedure, shortened: as §1

crizotinib = compound: C[C@@H](Oc1cc(-c2cnn(C3CCNCC3)c2)cnc1N)c1c(Cl)ccc(F)c1Cl [crizotinib]
Procedure, shortened: as §1

[4] = compound: C[C@@H]1COCCN1C2=NC(=NC(=C2)C3(CC3)S(=O)(=O)C)C4=C5C=CNC5=CC=C4
Procedure, shortened: as §1

tozasertib = compound: Cc1cc(Nc2cc(N3CCN(C)CC3)nc(Sc3ccc(NC(=O)C4CC4)cc3)n2)n[nH]1 [tozasertib]
Procedure, shortened: as §1

doramapimod = compound: Cc1ccc(-n2nc(C(C)(C)C)cc2NC(=O)Nc2ccc(OCCN3CCOCC3)c3ccccc23)cc1 [doramapimod]
Procedure, shortened: as §1

idasanutlin = compound: COc1cc(C(=O)O)ccc1NC(=O)[C@@H]1N[C@@H](CC(C)(C)C)[C@](C#N)(c2ccc(Cl)cc2F)[C@H]1c1cccc(Cl)c1F [idasanutlin]
Procedure, shortened: as §1

[5] = compound: COc1cc2nc(-c3cc(F)ccc3O)nc(N[C@@H]3CNC[C@H]3C(C)(C)O)c2cc1OC
Procedure, shortened: as §1

gefitinib = compound: COc1cc2ncnc(Nc3ccc(F)c(Cl)c3)c2cc1OCCCN1CCOCC1 [gefitinib]
Procedure, shortened: as §1

lapatinib = compound: CS(=O)(=O)CCNCc1ccc(-c2ccc3ncnc(Nc4ccc(OCc5cccc(F)c5)c(Cl)c4)c3c2)o1 [lapatinib]
Procedure, shortened: as §1

pictilisib = compound: CS(=O)(=O)N1CCN(Cc2cc3nc(-c4cccc5[nH]ncc45)nc(N4CCOCC4)c3s2)CC1 [pictilisib]
Procedure, shortened: as §1

gandotinib = compound: Cc1cc(Nc2cc(CN3CCOCC3)c3nc(C)c(Cc4ccc(Cl)cc4F)n3n2)n[nH]1 [gandotinib]
Procedure, shortened: as §1

ispinesib = compound: Cc1ccc(C(=O)N(CCCN)[C@@H](c2nc3cc(Cl)ccc3c(=O)n2Cc2ccccc2)C(C)C)cc1 [ispinesib]
Procedure, shortened: as §1

zotarolimus = compound: CO[C@H]1C[C@@H]2CC[C@@H](C)[C@@](O)(O2)C(=O)C(=O)N2CCCC[C@H]2C(=O)O[C@H]([C@H](C)C[C@@H]2CC[C@H](n3cnnn3)[C@H](OC)C2)CC(=O)[C@H](C)/C=C(\C)[C@@H](O)[C@@H](OC)C(=O)[C@H](C)C[C@H](C)/C=C/C=C/C=C/1C [zotarolimus]
Procedure, shortened: as §1

[6] = compound: C[C@H](C1=CC=C(C=C1)C(=O)NC2=C3C=CNC3=NC=C2)N
Procedure, shortened: as §1

duvelisib = compound: C[C@H](Nc1ncnc2nc[nH]c12)c1cc2cccc(Cl)c2c(=O)n1-c1ccccc1 [duvelisib]
Procedure, shortened: as §1

[7] = compound: Cc1cc(SCc2sc(-c3ccc(C(F)(F)F)cc3)nc2C)ccc1OCC(=O)O
Procedure, shortened: as §1

Measured: log2 fold change

ORMDL1 (UniProt Q9P0S3)
inactive: [1] 0.097 | filanesib -0.025 | alisertib -0.009 | [2] 0.125 | [3] 0.034 | crizotinib -0.13 | [4] 0.211 | tozasertib -0.19 | doramapimod -0.002

NXF1 (UniProt Q9UBU9)
inactive: [1] 0.013 | idasanutlin 0.286 | [5] -0.039 | gefitinib -0.024 | lapatinib -0.176 | pictilisib 0.043 | crizotinib -0.116 | gandotinib -0.101 | tozasertib 0.256 | doramapimod 0.058 | ispinesib -0.017

ORC6 (UniProt Q9Y5N6)
inactive: [1] -0.12 | filanesib -0.007 | [5] -0.008 | gefitinib -0.038 | lapatinib -0.104 | [3] 0.023 | crizotinib -0.043 | [4] -0.046 | doramapimod 0.067 | ispinesib -0.033

OGFOD3 (UniProt Q6PK18)
inactive: alisertib -0.064 | [5] 0.404 | gefitinib -0.078 | [2] -0.246 | lapatinib -0.163 | ispinesib 0.415

ORAI1 (UniProt Q96D31)
inactive: [1] 0.017 | alisertib 0.073 | [5] -0.033 | gefitinib -0.084 | [2] 0.001 | lapatinib 0.002 | crizotinib 0.073 | [4] -0.051 | tozasertib -0.23 | doramapimod -0.033 | ispinesib -0.117

ORC2 (UniProt Q13416)
inactive: [1] -0.289 | filanesib -0.105 | alisertib 0.062 | [5] -0.039 | gefitinib 0.112 | [2] 0.02 | lapatinib 0.023 | pictilisib -0.058 | [3] 0.035 | crizotinib -0.018 | [4] 0.09 | gandotinib -0.156 | tozasertib -0.089 | doramapimod 0.314 | ispinesib -0.155

ORMDL3 (UniProt Q8N138)
inactive: [5] -0.15 | lapatinib -0.041

ORC3 (UniProt Q9UBD5)
inactive: idasanutlin -0.167

NUF2 (UniProt Q9BZD4)
inactive: [1] -0.042 | zotarolimus -0.016 | idasanutlin 0.019 | alisertib 0.027 | [5] 0.127 | gefitinib -0.106 | [2] -0.216 | lapatinib -0.045 | pictilisib -0.233 | crizotinib -0.287 | [4] -0.246 | [6] 0.33 | duvelisib -0.176 | gandotinib 0.059 | [7] 0.244 | doramapimod 0.27

Reprinted at random: two entries already listed
NUF2 (UniProt Q9BZD4)
inactive: [1] -0.042 | zotarolimus -0.016 | idasanutlin 0.019 | alisertib 0.027 | [5] 0.127 | gefitinib -0.106 | [2] -0.216 | lapatinib -0.045 | pictilisib -0.233 | crizotinib -0.287 | [4] -0.246 | [6] 0.33 | duvelisib -0.176 | gandotinib 0.059 | [7] 0.244 | doramapimod 0.27

ORC2 (UniProt Q13416)
inactive: [1] -0.289 | filanesib -0.105 | alisertib 0.062 | [5] -0.039 | gefitinib 0.112 | [2] 0.02 | lapatinib 0.023 | pictilisib -0.058 | [3] 0.035 | crizotinib -0.018 | [4] 0.09 | gandotinib -0.156 | tozasertib -0.089 | doramapimod 0.314 | ispinesib -0.155

(cont.)

NUDT6 (UniProt P53370)
inactive: [1] 0.017 | zotarolimus -0.173 | alisertib 0.012 | [5] 0.175 | gefitinib -0.025 | [2] -0.084 | lapatinib -0.017 | crizotinib 0.069 | [4] 0.122 | [6] 0.6 | [7] -0.094 | doramapimod -0.127 | ispinesib -0.097

P2RY1 (UniProt P47900)
inactive: idasanutlin -0.054 | alisertib -0.15 | [5] 0.026 | [2] 0.02 | lapatinib -0.019 | pictilisib -0.1 | [4] -0.005 | duvelisib 0.027 | gandotinib 0.038 | [7] -0.162

OPA3 isoform 2 (UniProt Q9H6K4)
inactive: zotarolimus -0.066 | idasanutlin -0.153 | alisertib -0.174 | [2] 0.04 | [6] -0.1 | duvelisib -0.044 | [7] 0.025 | ispinesib 0.352
